Source: paper PMC3513293
Results are given in words; binding and its absence hold for the method and conditions named. Some results given as binding are weak or reduced against the parent protein; the word gives no strength.

Target: p97/Valosin-containing protein (VCP), full length (UniProt P55072)
Experiment: SPR; Biacore 3000; p97/VCP immobilised on CM5 (1000 RU in Figure 6); UN or p47 injected with 1 mM ATP (magnesium complex) during association and dissociation; 25°C, PBS; Interaction Map Analysis for UN; AMP-PNP strengthened UN binding much as ATP; both purified

B1: p47 (protein, UniProt O35987 1-370)
chain: MAEERQDALREFVAVTGAEEDRARFFLESAGWDLQIALASFYEDGGDEDIVTISQATPSSVSRGTAPSDNRVTSFRDLIHDQDEEEEEEEGQRFYAGGSERSGQQIVGPPRKKSPNELVDDLFKGAKEHGAVAVERVTKSPGETSKPRPFAGGGYRLGAAPEEESAYVAGERRRHSGQDVHVVLKLWKTGFSLDNGDLRSYQDPSNAQFLESIRRGEVPAELRRLAHGGQVNLDMEDHRDEDFVKPKGAFKAFTGEGQKLGSTAPQVLNTSSPAQQAENEAKASSSILINEAEPTTNIQIRLADGGRLVQKFNHSHRISDIRLFIVDARPAMAATSFVLMTTFPNKELADENQTLKEANLLNAVIVQRLT
binding: binds
